Laboratory results: PubChem BioAssay AID1259331 (Drosophila RNAi Screening Center, 2017)
Here is an unselected part of about 3,100 deposited reagents. In the full data, 126 (4.1%) got an active call. 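Calls are per reagent; zinc was so toxic that few knock-downs lowered ATP further, so most hits raise ATP.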 Raw values are not corrected between plates. Names joined by + are all predicted targets of the reagent. Not stated in the record: the amount of reagent.

Purpose: 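Genes whose knock-down changes cell survival under toxic zinc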 (primary screen)
System: Drosophila S2R+ cells
Knock-down reagent: long dsRNA against Drosophila genes
Time to read-out: 5 days (4 days knock-down, then 1 day zinc)
Conditions: zinc chloride at 15 mM final level for 1 day
Measurement: 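Total cellular ATP measured by luciferase luminescence as a viability proxy, turned into Z scores from three plate copies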
Scale: mean Z score: higher = more ATP than other wells, better survival under zinc; ATP luminescence: higher = more ATP, more viable cells
Rule for the call: 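a reagent is called a hit when its Z score is above 1.5 or below -1.5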
Calls: active = hit, ATP up or down; inactive = not a hit

no.	target gene	DRSC id	mean Z score	ATP luminescence, replicate 1	ATP luminescence, replicate 2	outcome
1	Spase12 + CG2006	DRSC14316	1.47	86994	93873	inactive
2	l(2)k05819	DRSC00826	-0.334	48629	54562	inactive
3	l(2)k05819	DRSC39612	-0.854	42764	47806	inactive
4	CG17660	DRSC00513	0.261	56429	63599	inactive
5	CG17660	DRSC39552	0.579	70922	70579	inactive
6	CG15531	DRSC15068	0.608	72894	79429	inactive
7	PIG-F	DRSC11069	-0.168	72124	58351	inactive
8	PIG-F	DRSC27027	0.067	60512	58934	inactive
9	PGAP3	DRSC04989	-0.169	27302	33292	inactive
10	PGAP3	DRSC39550	-0.676	53841	49915	inactive
11	KdelR	DRSC03353	0.0427	56377	57295	inactive
12	babo	DRSC07581	-0.424	88092	57597	inactive
13	babo	DRSC36676	0.224	48200	50532	inactive
14	babo	DRSC36677	-0.232	46023	43657	inactive
15	CG9458	DRSC16495	0.251	37519	58335	inactive
16	Vha16-4	DRSC07321	-0.0727	68932	72088	inactive
17	CG32054	DRSC10684	-0.165	75398	56413	inactive
18	CG32054	DRSC24449	-0.0338	61867	59860	inactive
19	CG34109	DRSC02225	1.76	78589	58109	active
20	CG34109	DRSC26977	0.0479	61404	56208	inactive
21	CG34109	DRSC30104	0.86	60742	58043	inactive
22	Abcd3	DRSC19488	-0.219	40365	42902	inactive
23	Abcd3	DRSC29341	0.33	66857	66103	inactive
24	Or13a	DRSC20265	0.257	70010	70634	inactive
25	Or13a	DRSC39651	-0.489	49812	53052	inactive
26	Sdc	DRSC04654	0.184	54013	35856	inactive
27	CG9444	DRSC16493	0.0293	39422	56379	inactive
28	CG9664	DRSC00725	-0.243	49246	56551	inactive
29	Nhe2	DRSC03172	0.747	38376	66411	inactive
30	Nhe2	DRSC03377	0.273	54853	37913	inactive
31	CG8916	DRSC20120	0.0541	65880	68035	inactive
32	CG8916	DRSC39685	-0.302	57339	53601	inactive
33	CR12628 + Mgstl	DRSC03702	-0.0617	67029	62981	inactive
34	CR12628 + Mgstl	DRSC20568	0.836	44738	39936	inactive
35	CG12974	DRSC11684	-0.287	67234	58025	inactive
36	CG12974	DRSC39561	-0.216	60581	58488	inactive
37	CG1213	DRSC12191	0.289	72517	69584	inactive
38	Gr28b	DRSC02291	-0.322	46609	39833	inactive
39	Gr28b	DRSC02292	-0.255	76992	57374	inactive
40	Gr28b	DRSC29459	0.439	68298	68023	inactive
41	CG17928	DRSC02644	-0.18	49280	36113	inactive
42	CG17928	DRSC39554	-0.129	64199	55865	inactive
43	CG17751	DRSC22837	-0.73	37382	38019	inactive
44	CG17751	DRSC24497	-0.729	50429	49880	inactive
45	ppk9	DRSC04134	0.868	58681	41479	inactive
46	ppk9	DRSC04135	-0.119	71162	58728	inactive
47	Ir56d	DRSC06590	-0.00113	69773	70939	inactive
48	Ir56d	DRSC28383	0.145	63599	63650	inactive
49	Or47a	DRSC07491	-0.174	75415	72157	inactive
50	CG9308	DRSC04539	0.171	52590	37553	inactive
51	CG9308	DRSC28962	0.175	63153	65056	inactive
52	Ir75b	DRSC10189	0.655	86513	71179	inactive
53	CG14767	DRSC06500	-0.262	27970	27525	inactive
54	CG14767	DRSC28418	0.284	66977	64553	inactive
55	CG33253	DRSC19547	-0.0326	42319	42062	inactive
56	CG33253	DRSC39701	0.505	65845	68332	inactive
57	Nhe3	DRSC03380	0.303	56242	45457	inactive
58	Nhe3	DRSC39850	0.0686	55061	59449	inactive

Entries listed so far whose gene name begins with L or l:
target gene	DRSC id	mean Z score	ATP luminescence, replicate 1	ATP luminescence, replicate 2	outcome
l(2)k05819	DRSC00826	-0.334	48629	54562	inactive
l(2)k05819	DRSC39612	-0.854	42764	47806	inactive

The results go on:
no.	target gene	DRSC id	mean Z score	ATP luminescence, replicate 1	ATP luminescence, replicate 2	outcome
59	Gat	DRSC17144	-0.752	51595	55590	inactive
60	Gat	DRSC39474	0.162	59495	55350	inactive
61	CG12194	DRSC00345	-0.155	44617	39560	inactive
62	CG12194	DRSC24918	0.0152	60581	58075	inactive
63	CG5404	DRSC28832	0.245	66667	63652	inactive
64	CG5404	DRSC39809	-0.493	45920	52813	inactive
65	CG13014	DRSC19533	-0.207	40357	43005	inactive
66	CG13014	DRSC38999	-0.11	46194	46193	inactive
67	Nup154	DRSC26396	2.01	94954	77731	active
68	tadr	DRSC03177	-0.235	30147	32530	inactive
69	tadr	DRSC39590	-0.216	53554	59209	inactive
70	Gr98b	DRSC21675	0.176	49229	50121	inactive
71	Gr98b	DRSC39891	-0.157	57117	59403	inactive
72	ppk30	DRSC15302	0.746	74081	82865	inactive
73	ppk30	DRSC39594	-0.957	56876	37656	inactive
74	Unc50	DRSC16561	0.247	59689	62752	inactive
75	Unc50	DRSC28560	0.46	69172	67783	inactive
76	CG17167	DRSC20902	0.0617	41531	47137	inactive
77	CG17167	DRSC20903	0.386	47700	45234	inactive
78	nac	DRSC16520	-0.391	38050	53519	inactive
79	Sr-CIV	DRSC00575	0.0549	54219	42158	inactive
80	Sr-CIV	DRSC24930	0.227	67200	62535	inactive
81	Vha100-1	DRSC14148	0.566	52281	51972	inactive
82	Vha100-1	DRSC39862	-0.147	49622	59809	inactive
83	CG7342	DRSC16230	-0.196	42366	43845	inactive
84	CG7342	DRSC39501	0.0841	49040	51475	inactive
85	Or33a	DRSC03386	-0.04	49796	40842	inactive
86	CG14744	DRSC06480	-0.282	70527	66205	inactive
87	oys	DRSC05203	1.52	62741	62913	active
88	oys	DRSC06751	-0.344	30525	30507	inactive
89	oys	DRSC26939	0.243	60649	61146	inactive
